Data taken from the supplement of paper PMC3334620.
Whole data set: some 33,000 sequences, median “E-score (-0.5 to 0.5)” near -0.015, cut for the highest 2% near 0.3. Some of the results follow.

What follows are sequences tested against T1, Abf1 (UniProt P14164) (assay: PBM E-score (8-mer binding enrichment) (E-score (-0.5 to 0.5)); higher = stronger / more preferred TF binding). Settings: protein concentration: 200 nM; construct: GST-full length.
T1 sequence: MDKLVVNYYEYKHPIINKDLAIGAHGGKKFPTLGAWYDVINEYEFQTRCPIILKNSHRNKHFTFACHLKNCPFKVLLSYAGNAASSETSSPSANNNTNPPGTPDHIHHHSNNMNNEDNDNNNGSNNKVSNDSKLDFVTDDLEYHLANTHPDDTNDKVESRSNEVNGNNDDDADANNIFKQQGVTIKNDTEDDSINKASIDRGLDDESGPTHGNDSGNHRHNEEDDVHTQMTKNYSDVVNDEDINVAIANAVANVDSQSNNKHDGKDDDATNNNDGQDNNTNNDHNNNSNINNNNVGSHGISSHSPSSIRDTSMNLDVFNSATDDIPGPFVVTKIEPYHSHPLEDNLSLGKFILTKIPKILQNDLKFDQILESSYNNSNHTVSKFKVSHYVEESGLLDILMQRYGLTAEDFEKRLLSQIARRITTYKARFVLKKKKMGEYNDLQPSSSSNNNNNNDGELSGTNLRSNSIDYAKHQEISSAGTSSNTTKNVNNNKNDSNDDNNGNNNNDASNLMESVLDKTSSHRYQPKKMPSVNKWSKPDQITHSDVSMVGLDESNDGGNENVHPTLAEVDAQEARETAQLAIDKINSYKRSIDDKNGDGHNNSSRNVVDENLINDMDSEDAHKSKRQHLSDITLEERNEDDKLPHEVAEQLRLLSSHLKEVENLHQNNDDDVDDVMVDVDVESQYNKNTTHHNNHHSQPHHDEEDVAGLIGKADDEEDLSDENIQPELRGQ
How it was run: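 The E-score, a modified Wilcoxon-Mann-Whitney statistic, was computed by the Universal PBM Analysis Suite for every ungapped eight-base word pooled with its reverse complement. Scans behind it were normalised with masliner after bound GST-tagged yeast transcription factors were detected with fluorescent anti-GST. The proteins, at about 100-200 nM, had been applied to universal all-10-mer Agilent arrays made double-stranded by primer extension.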

| Sequence | PBM E-score |
| --- | --- |
| CCGGTGAC | 0.227 |
| ATGGTGAG | -0.00969 |
| GACCAGTC | -0.118 |
| AGGACAGA | -0.0582 |
| AGCAATGG | -0.16 |
| GCTTCTAC | -0.0278 |
| CTTGAATA | 0.0765 |
| GGAGGAGA | -0.314 |
| CAAATTGC | -0.0248 |
| ACGCTGCT | 0.0457 |
| GAACTAGA | 0.0188 |
| CCTCCCAA | -0.0844 |
| ATATGCTA | -0.0264 |
| GCAAATAA | 0.0284 |
| CGTCTCTA | -0.0126 |
| AACCTTCG | 0.0857 |
| AACCGTCA | 0.0401 |
| CTGGCGAC | 0.0148 |
| TTGTCAAA | -0.0739 |
| GTACTCAC | 0.261 |
| CCTTCAAA | 0.0786 |
| ATTCCCAG | 0.114 |
| AAGTAAAG | -0.22 |
| TAGGTAGA | -0.128 |
| GTATTAAA | 0.229 |

| Sequence | PBM E-score |
| --- | --- |
| CAGGCTGC | -0.244 |
| CCTAACAA | 0.101 |
| CATCGCTC | 0.0948 |
| GGGTCCGA | -0.158 |
| TAACGGTA | 0.12 |
| TACTTTGA | 0.121 |
| CCTGATAA | 0.1 |
| CCCCTAAA | -0.346 |
| GGATCGCA | 0.0421 |
| CCAGGAGA | -0.0792 |
| CATGGAGA | 0.0883 |
| GTTTTGAA | 0.0828 |
| GGCGGTAA | -0.0833 |
| AATGCGGG | 0.0524 |
| CAGACATC | 0.101 |
| ATGGAAGC | -0.258 |
| ATTAGGAG | -0.0794 |
| ACAGTGAT | 0.294 |
| CCGATAAC | -0.00362 |
| GGCGTACC | -0.196 |
| AAGGTTCC | -0.0986 |
| CCAAGTGA | 0.0334 |
| ATCGCACC | -0.0624 |
| CGGAAAGC | -0.0608 |
| CATAGATA | 0.06 |

7 entries from above, in CSV form:
Sequence,PBM E-score
CCAGGAGA,-0.0792
CATGGAGA,0.0883
GTTTTGAA,0.0828
GGCGGTAA,-0.0833
AATGCGGG,0.0524
CAGACATC,0.101
ATGGAAGC,-0.258

Later entries.

| Sequence | PBM E-score |
| --- | --- |
| TTCGCGAA | 0.0531 |
| TCGATACA | 0.132 |
| ATCTGCCC | -0.189 |
| AAACTTAG | 0.0351 |
| AAAGTTAA | 0.222 |
| GTTGCCTA | -0.155 |
| CTGCCGCC | -0.235 |
| CAAGTTGA | -0.187 |
| GACCATCA | -0.0399 |
| CAATTCTC | -0.068 |
| GATCTCGC | 0.0902 |
| ATTGTGTC | -0.035 |
| ACTTATAC | 0.117 |
| AAGTAAGT | -0.091 |
| AACGGCAG | 0.132 |
| GAGCGCTC | -0.0308 |
| ATAGAAAG | -0.158 |
| GTTGGACA | 0.0476 |
| ATACCGCG | -0.06 |
| ATTTATTG | 0.0665 |
| AGTCGGAC | -0.0189 |
| TACTATGA | 0.176 |
| ACAGATAG | -0.227 |
| ATGCACTC | -0.0272 |
| ATACCAAA | 0.0398 |

| Sequence | PBM E-score |
| --- | --- |
| CCCCGCCC | -0.195 |
| AACTTCTC | 0.0278 |
| CCGATTTC | -0.122 |
| AACAGTAT | 0.0291 |
| ACTTATGG | -0.0559 |
| CCATTGAG | -0.057 |
| GCTGGGTA | -0.0116 |
| CTTGAGAA | -0.106 |
| AACGTTCC | -0.1 |
| GGAGTTTA | -0.249 |
| ATTTCGTA | 0.273 |
| CGGCGCAG | -0.0595 |
| ACCCTCAT | -0.207 |
| AGTACCAC | -0.127 |
| CCGGTTAG | -0.22 |
| GCTAGTGA | 0.194 |
| GCCGATAC | 0.0706 |
| CGAAATGC | 0.089 |
| CACGCATC | 0.0665 |
| ATACTCCG | 0.158 |
| AACGAGTG | 0.162 |
| TAACAGGA | 0.0454 |
| TACTGTCA | 0.146 |
| AGGATTCA | 0.0301 |
| ACCCCCCT | -0.334 |

| Sequence | PBM E-score |
| --- | --- |
| CAACAATA | 0.114 |
| CGCCTAAC | 0.117 |
| CTACCGAA | -0.131 |
| CTCCAAGA | -0.175 |
| CTGGAGTC | -0.25 |
| ACCCTCGT | -0.0001 |
| ACTTCCCG | 0.0488 |
| GGCTAGTA | 0.21 |
| AGTTAGGA | 0.0889 |
| CTTTCCAC | 0.0558 |
| ACGTATAC | 0.162 |
| AATTGCGC | -0.0775 |
| CATGGTAA | 0.0567 |
| ACGCAAGT | -0.103 |
| AGTTAGTC | 0.0121 |
| GTGCGACA | 0.128 |
| AGGAATGA | 0.149 |
| CACTTCCG | -0.091 |
| CGCGGGAC | -0.172 |
| CATGGCAC | -0.15 |
| CGTGGGCA | 0.0108 |
| CGTATCGA | 0.0981 |
| CGTGAGAA | 0.253 |
| AACATTGA | -0.0377 |
| CCACTCGA | 0.0826 |

| Sequence | PBM E-score |
| --- | --- |
| CTCGCACC | -0.0934 |
| TCGTGAGA | 0.263 |
| AACCAGGC | -0.188 |
| TCAAGTCA | 0.0276 |
| AAAGGCGC | 0.102 |
| GTCCGGCA | -0.0924 |
| AGGCAACC | -0.0748 |
| ATTAAAAA | 0.279 |
| GTCTGAAC | -0.0513 |
| AAGAATTC | 0.112 |
| ACGTTTTC | 0.0965 |
| AAGGCGAA | -0.112 |
| ACCGGCAT | -0.0711 |
| CCAGTGAC | 0.0883 |
| ATATGAAC | 0.0908 |
| CAGATTGG | -0.278 |
| GTCACGGA | 0.206 |
| CAGTCCCC | -0.369 |
| ATGGGGGC | -0.378 |
| GGTCTGTA | -0.269 |
| AGAGAGCG | -0.103 |
| CACCAAGC | -0.181 |
| ATATGGGG | -0.234 |
| AAGATACA | 0.147 |
| AAGAAGTA | 0.138 |

Nothing new here: an excerpt of the list.

| Sequence | PBM E-score |
| --- | --- |
| CAGTCCCC | -0.369 |
| ATGGGGGC | -0.378 |
| GGTCTGTA | -0.269 |
| AGAGAGCG | -0.103 |
| CACCAAGC | -0.181 |
| ATATGGGG | -0.234 |
| AAGATACA | 0.147 |

Next part:

| Sequence | PBM E-score |
| --- | --- |
| CAACGGAA | 0.13 |
| GTACGGCA | 0.222 |
| GCGGACCC | -0.149 |
| CACAAATG | -0.0408 |
| ACTAGACG | 0.168 |
| CCAACCGG | -0.0618 |
| AGTTCCTC | -0.207 |
| TGGACCAA | -0.28 |
| ATAGACAC | 0.0964 |
| AGATTGCT | -0.11 |
| CATCACAC | 0.141 |
| CACCATCC | -0.189 |
| GATTCGAA | 0.121 |
| GCCGATCA | -0.00195 |
| ACTAATTA | 0.289 |
| AGATACAC | 0.138 |
| ACCGGGCT | -0.169 |
| AGTGATGC | 0.319 |
| GTTGAATA | 0.186 |
| CATGCAGG | -0.219 |
| CTTCGCCC | -0.161 |
| GAACAATC | 0.0605 |
